Our source for the binding values is paper PMC7872283.

Sequences of proteins named here, by UniProt entry; tags and fusion partners are left off.
UniProt P09874: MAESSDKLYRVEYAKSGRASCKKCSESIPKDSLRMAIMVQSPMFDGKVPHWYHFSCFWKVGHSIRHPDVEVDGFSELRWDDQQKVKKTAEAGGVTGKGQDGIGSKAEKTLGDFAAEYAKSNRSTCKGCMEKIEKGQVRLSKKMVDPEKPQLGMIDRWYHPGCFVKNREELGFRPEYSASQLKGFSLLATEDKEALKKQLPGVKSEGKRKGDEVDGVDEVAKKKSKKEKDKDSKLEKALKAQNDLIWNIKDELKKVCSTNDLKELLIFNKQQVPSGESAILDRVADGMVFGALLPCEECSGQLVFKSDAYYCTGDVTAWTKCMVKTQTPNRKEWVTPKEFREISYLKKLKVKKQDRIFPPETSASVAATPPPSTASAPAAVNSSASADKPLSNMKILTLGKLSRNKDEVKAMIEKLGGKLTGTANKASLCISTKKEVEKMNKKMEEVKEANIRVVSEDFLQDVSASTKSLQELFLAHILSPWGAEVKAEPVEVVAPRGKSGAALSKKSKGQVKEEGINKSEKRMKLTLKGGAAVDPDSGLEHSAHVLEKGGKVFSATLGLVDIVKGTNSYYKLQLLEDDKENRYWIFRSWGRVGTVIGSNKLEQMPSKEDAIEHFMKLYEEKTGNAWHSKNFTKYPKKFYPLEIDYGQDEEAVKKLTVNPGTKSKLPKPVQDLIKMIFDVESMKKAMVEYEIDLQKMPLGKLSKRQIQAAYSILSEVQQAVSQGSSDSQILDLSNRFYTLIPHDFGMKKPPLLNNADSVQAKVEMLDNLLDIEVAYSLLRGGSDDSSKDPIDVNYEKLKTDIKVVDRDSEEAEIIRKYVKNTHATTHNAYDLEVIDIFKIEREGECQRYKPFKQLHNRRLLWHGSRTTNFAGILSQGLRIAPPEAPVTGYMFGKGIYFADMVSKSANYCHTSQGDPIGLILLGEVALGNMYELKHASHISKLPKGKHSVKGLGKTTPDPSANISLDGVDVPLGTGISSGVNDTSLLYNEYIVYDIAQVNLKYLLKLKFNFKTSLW

Holding throughout (test): co-IP
Assay [1] deals with endogenous poly(ADP-ribose) polymerase 1 (PARP1) (human (endogenous in HEK293T)) (UniProt P09874).
The target in assay [2] is T1, FLAG-tagged ubiquitin-like with PHD and RING finger domains 1 (UHRF1) (UniProt Q96T88).
T1 sequence: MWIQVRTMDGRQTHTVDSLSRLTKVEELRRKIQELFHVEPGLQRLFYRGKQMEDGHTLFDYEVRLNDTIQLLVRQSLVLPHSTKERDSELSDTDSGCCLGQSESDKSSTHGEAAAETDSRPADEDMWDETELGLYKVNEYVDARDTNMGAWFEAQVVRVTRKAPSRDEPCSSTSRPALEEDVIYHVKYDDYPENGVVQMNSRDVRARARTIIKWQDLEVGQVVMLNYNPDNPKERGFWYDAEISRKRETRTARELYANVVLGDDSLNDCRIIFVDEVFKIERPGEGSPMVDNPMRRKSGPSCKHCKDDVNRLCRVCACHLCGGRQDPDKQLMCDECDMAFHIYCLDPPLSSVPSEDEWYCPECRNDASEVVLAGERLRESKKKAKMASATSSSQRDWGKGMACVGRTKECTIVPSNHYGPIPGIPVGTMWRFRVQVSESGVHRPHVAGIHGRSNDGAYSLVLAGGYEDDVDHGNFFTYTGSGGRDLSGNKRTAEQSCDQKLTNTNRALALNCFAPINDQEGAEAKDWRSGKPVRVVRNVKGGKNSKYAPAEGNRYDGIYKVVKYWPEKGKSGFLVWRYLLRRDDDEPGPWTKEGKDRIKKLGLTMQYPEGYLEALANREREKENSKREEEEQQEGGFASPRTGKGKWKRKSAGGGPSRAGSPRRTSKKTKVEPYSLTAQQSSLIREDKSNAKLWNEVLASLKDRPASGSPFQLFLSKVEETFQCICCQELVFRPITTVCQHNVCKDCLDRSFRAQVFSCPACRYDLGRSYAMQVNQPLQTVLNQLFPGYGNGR

The target in assay [3] is T2, FLAG-tagged checkpoint with FHA and RING finger domains (CHFR) (UniProt Q96EP1).
T2 sequence: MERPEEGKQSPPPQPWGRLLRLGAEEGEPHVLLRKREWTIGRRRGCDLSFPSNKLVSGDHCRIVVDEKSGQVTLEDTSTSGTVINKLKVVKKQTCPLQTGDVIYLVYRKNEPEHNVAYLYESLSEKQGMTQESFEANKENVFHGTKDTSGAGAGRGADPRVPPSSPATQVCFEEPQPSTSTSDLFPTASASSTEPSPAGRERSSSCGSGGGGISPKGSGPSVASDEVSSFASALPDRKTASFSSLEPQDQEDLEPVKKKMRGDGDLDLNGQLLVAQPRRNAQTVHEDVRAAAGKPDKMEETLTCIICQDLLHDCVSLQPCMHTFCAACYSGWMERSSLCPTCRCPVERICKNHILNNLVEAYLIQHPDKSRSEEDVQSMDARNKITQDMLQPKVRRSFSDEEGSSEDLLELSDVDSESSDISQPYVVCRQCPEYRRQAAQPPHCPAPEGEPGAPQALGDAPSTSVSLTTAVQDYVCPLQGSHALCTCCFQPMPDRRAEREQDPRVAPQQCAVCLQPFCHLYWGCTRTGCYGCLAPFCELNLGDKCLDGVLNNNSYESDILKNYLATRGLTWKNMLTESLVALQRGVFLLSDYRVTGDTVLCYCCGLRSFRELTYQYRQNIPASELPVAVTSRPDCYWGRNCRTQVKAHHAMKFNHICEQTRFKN

In assay [4] the target is T3, FLAG-tagged ring finger protein 144A (RNF144A) (human (cDNA of BC-3 cells)) (UniProt P50876).
T3 sequence: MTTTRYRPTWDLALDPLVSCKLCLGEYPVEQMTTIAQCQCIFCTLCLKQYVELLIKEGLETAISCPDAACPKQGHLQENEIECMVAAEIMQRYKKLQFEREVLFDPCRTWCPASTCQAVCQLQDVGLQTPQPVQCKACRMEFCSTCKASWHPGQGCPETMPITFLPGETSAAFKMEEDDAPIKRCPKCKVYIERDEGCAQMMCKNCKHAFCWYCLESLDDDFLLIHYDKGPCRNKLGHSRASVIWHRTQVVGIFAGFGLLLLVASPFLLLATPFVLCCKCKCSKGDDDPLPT

No constants are given. Whether binding was seen depends on the method and setting. Binding seen in cells or lysates may run through a third protein. Some results given as binding are weak or reduced against the parent protein; the word gives no strength. For some of these results: Tags and fused reporters may be left off the sequences shown.

In the case of “FLAG-tagged CHFR I306A (from UniProt Q96EP1 1-664) (enzyme)”, in assay [1], the binding result is “binds”.

For “endogenous poly(ADP-ribose) polymerase 1 (PARP1) (from UniProt P09874 1-1014)”, the binding entry in assay [2], in assay [3] and in assay [4] was “binds” in each case.
